Results from PMC6547611.
These are yes or no findings as the source states them, for the method shown. In cells and extracts the contact can be indirect. Some binding calls cover weakened binding; strength is not graded here. Tags and fused reporters may be left off the sequences shown.

Legend:
[1] = molecular target: T1, Human purinergic receptor P2X1 fused to EYFP (pEYFP-C1-P2X1) (human) (UniProt P51575); assay: FRET or BRET; COS7 cells co-transfected with pECFP-N1-ROP18 (donor) and pEYFP-C1-P2X1 (acceptor), fixed in 4% paraformaldehyde 48 h after transfection; FRET efficiency by confocal laser scanning microscopy
T1 sequence: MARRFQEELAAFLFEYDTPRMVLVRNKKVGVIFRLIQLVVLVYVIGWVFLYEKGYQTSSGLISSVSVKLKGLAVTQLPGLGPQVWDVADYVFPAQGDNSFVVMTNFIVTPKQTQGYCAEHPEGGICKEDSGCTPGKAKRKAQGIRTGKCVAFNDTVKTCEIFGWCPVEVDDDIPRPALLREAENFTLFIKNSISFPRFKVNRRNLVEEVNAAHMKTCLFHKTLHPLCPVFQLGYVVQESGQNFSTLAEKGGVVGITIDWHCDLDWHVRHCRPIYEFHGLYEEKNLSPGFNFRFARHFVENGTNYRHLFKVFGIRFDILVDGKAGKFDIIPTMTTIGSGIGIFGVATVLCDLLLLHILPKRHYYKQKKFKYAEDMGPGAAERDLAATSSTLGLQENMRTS

[2] = molecular target: T2, HA-tagged P2X1 (pcDNA3.1-P2X1-HA), full length (human) (UniProt P51575); assay: co-IP; COS7 cells transfected for 48 h with pcDNA3.1-P2X1-HA or pcDNA3.1-P2X1Δ339-399-HA and pcDNA3.1-ROP18-3×Flag; lysates immunoprecipitated with anti-HA antibody and protein A-agarose at 4 °C, western blot
T2 sequence: T1 sequence

[3] = molecular target: HA-tagged P2X1 with a deletion of the C-terminus, amino acids 339-399 (pcDNA3.1-P2X1Δ339-399-HA) (human) (UniProt P51575); assay: as above
[4] = molecular target: T3, TgROP18 tagged with GFP and Flag, from the RH-ROP18-GFP-Flag strain (Toxoplasma gondii (RH strain)) (UniProt Q2PAY2); assay: co-IP; SF268 cells infected with the RH-ROP18-GFP-Flag strain for 36 h; lysates immunoprecipitated with anti-Flag antibody and protein A-agarose at 4 °C, western blot for endogenous P2X1
T3 sequence: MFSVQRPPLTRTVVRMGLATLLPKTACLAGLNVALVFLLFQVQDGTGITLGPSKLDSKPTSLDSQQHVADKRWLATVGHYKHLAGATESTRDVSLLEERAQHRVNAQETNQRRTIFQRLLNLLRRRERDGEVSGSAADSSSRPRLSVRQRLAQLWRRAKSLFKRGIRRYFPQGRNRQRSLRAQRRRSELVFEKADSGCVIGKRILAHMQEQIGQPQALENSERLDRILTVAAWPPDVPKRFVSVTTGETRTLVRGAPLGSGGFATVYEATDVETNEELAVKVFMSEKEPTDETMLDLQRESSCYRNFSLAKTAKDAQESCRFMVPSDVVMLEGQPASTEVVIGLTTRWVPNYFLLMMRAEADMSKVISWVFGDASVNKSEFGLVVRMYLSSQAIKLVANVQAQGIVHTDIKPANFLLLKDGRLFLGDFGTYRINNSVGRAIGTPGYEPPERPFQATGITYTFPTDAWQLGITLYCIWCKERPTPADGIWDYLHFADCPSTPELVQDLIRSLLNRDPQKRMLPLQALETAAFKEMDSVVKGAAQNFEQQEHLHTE

B1: Toxoplasma gondii rhoptry protein 18 (TgROP18) fused to ECFP (pECFP-N1-ROP18) (protein, UniProt Q2PAY2 1-554)
chain: T3 sequence
binding [1]: binds

B2: Flag-tagged TgROP18 (pcDNA3.1-ROP18-3×Flag) (protein, UniProt Q2PAY2 1-554)
chain: T3 sequence
binding [2]: binds | binding [3]: no binding

B3: Endogenous P2X1 from SF268 cells (receptor, UniProt P51575 1-399)
chain: T1 sequence
binding [4]: binds
